This note sets out measurements from PMC4966312.

Experiment [1] deals with T1, NSMCE3 (WT) fused to the Gal4 DNA-binding domain (human) (UniProt Q96MG7).
T1 sequence: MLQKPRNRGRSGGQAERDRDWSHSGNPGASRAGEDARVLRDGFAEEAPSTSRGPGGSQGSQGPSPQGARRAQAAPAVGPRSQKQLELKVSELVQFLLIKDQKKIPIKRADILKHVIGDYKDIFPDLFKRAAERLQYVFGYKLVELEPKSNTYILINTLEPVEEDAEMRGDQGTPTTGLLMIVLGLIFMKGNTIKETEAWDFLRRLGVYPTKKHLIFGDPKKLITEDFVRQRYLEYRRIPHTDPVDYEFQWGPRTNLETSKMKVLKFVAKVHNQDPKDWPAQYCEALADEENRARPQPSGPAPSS
Nature of the experiment: two-hybrid; NSMCE3 (WT or mutated) fused to the Gal4 DNA-binding domain, NSMCE1 or NSMCE4 fused to the Gal4-activation domain, coexpressed in yeast; scored on His- plates with 5 mM 3-amino-1,2,4-triazol; 30°C.

Experiment [2] deals with T2, NSMCE3 Leu264Phe fused to the Gal4 DNA-binding domain (human) (UniProt Q96MG7).
T2 sequence: T1 sequence with L264F
Described as above.

Experiment [3] deals with T3, His-tagged NSMCE3 Leu264Phe, recombinant human (human) (UniProt Q96MG7).
T3 sequence: T1 sequence with L264F
The experiment can be described thus: SEC; purified NSMCE1-NSMCE3 complex on Superdex 200 Increase 5/150 GL in 20 mM HEPES.NaOH pH 7.5, 250 mM NaCl, 0.5 mM TCEP; both purified. For orientation: Size exclusion chromatography separates by hydrodynamic size, large species first.

Experiment [4] deals with T4, His-tagged NSMCE3 (WT), recombinant human (human) (UniProt Q96MG7).
T4 sequence: T1 sequence
The description is as above.

Experiment [5] has as its target T3, His-tagged NSMCE3 Leu264Phe, recombinant human (human). Nature of the experiment: co-purification of co-expressed proteins; untagged NSMCE1 and His-tagged NSMCE3 coexpressed in and purified from E. coli; Coomassie-stained SDS-PAGE and immunodetection of the His tag.
Experiment [6] deals with T4, His-tagged NSMCE3 (WT), recombinant human (human). The description is as above.
Experiment [7] concerns the target T5, GFP-tagged NSMCE3 (WT) (human) (UniProt Q96MG7).
T5 sequence: T1 sequence
The experiment can be described thus: co-IP; GFP-tagged NSMCE3 expressed in U2OS cells (with Myc-NSMCE1 or alone), lysate adjusted to 150 mM NaCl, GFP-Trap_MA beads, 4°C for 2 hours, immunoblotting.

The target of experiment [8] is T6, GFP-tagged NSMCE3 Leu264Phe (human) (UniProt Q96MG7).
T6 sequence: T1 sequence with L264F
Described as above.

Changes are numbered by the printed parent chain. No constants are given. Whether binding was seen depends on the method and setting. For part of these data: In cells and extracts the contact can be indirect. Some results given as binding are weak or reduced against the parent protein; the word gives no strength. Sequences can lack the tags named with a protein.

B1: WT NSMCE1 fused to the Gal4-activation domain (protein, UniProt Q8WV22 1-266)
chain: MQGSTRRMGVMTDVHRRFLQLLMTHGVLEEWDVKRLQTHCYKVHDRNATVDKLEDFINNINSVLESLYIEIKRGVTEDDGRPIYALVNLATTSISKMATDFAENELDLFRKALELIIDSETGFASSTNILNLVDQLKGKKMRKKEAEQVLQKFVQNKWLIEKEGEFTLHGRAILEMEQYIRETYPDAVKICNICHSLLIQGQSCETCGIRMHLPCVAKYFQSNAEPRCPHCNDYWPHEIPKVFDPEKERESGVLKSNKKSLRSRQH
B1: the binding entry in experiment [1] and in experiment [2] was “binds” in each case.

B2: NSMCE1 (untagged), recombinant human (protein, UniProt Q8WV22 1-266)
chain: B1 chain
Regarding B2, the binding entry in experiment [3], in experiment [4], in experiment [5] and in experiment [6] was “binds” throughout.

B3: Myc-tagged NSMCE1 (protein, UniProt Q8WV22 1-266)
chain: B1 chain
Regarding B3, the binding result in experiment [7] and in experiment [8] was “binds” throughout.

B4: SMC6 (protein, UniProt Q96SB8 1-1091)
chain: MAKRKEENFSSPKNAKRPRQEELEDFDKDGDEDECKGTTLTAAEVGIIESIHLKNFMCHSMLGPFKFGSNVNFVVGNNGSGKSAVLTALIVGLGGRAVATNRGSSLKGFVKDGQNSADISITLRNRGDDAFKASVYGNSILIQQHISIDGSRSYKLKSATGSVVSTRKEELIAILDHFNIQVDNPVSVLTQEMSKQFLQSKNEGDKYKFFMKATQLEQMKEDYSYIMETKERTKEQIHQGEERLTELKRQCVEKEERFQSIAGLSTMKTNLESLKHEMAWAVVNEIEKQLNAIRDNIKIGEDRAARLDRKMEEQQVRLNEAEQKYKDIQDKLEKISEETNARAPECMALKADVVAKKRAYNEAEVLYNRSLNEYKALKKDDEQLCKRIEELKKSTDQSLEPERLERQKKISWLKERVKAFQNQENSVNQEIEQFQQAIEKDKEEHGKIKREELDVKHALSYNQRQLKELKDSKTDRLKRFGPNVPALLEAIDDAYRQGHFTYKPVGPLGACIHLRDPELALAIESCLKGLLQAYCCHNHADERVLQALMKRFYLPGTSRPPIIVSEFRNEIYDVRHRAAYHPDFPTVLTALEIDNAVVANSLIDMRGIETVLLIKNNSVARAVMQSQKPPKNCREAFTADGDQVFAGRYYSSENTRPKFLSRDVDSEISDLENEVENKTAQILNLQQHLSALEKDIKHNEELLKRCQLHYKELKMKIRKNISEIRELENIEEHQSVDIATLEDEAQENKSKMKMVEEHMEQQKENMEHLKSLKIEAENKYDAIKFKINQLSELADPLKDELNLADSEVDNQKRGKRHYEEKQKEHLDTLNKKKRELDMKEKELEEKMSQARQICPERIEVEKSASILDKEINRLRQKIQAEHASHGDREEIMRQYQEARETYLDLDSKVRTLKKFIKLLGEIMEHRFKTYQQFRRCLTLRCKLYFDNLLSQRAYCGKMNFDHKNETLSISVQPGEGNKAAFNDMRALSGGERSFSTVCFILSLWSIAESPFRCLDEFDVYMDMVNRRIAMDLILKMADSQRFRQFILLTPQSMSSLPSSKLIRILRMSDPERGQTTLPFRPVTQEEDDDQR
With B4, in experiment [8], the binding entry is on record as “binds”.
